According to paper PMC11065752:
No constants are given. Whether binding was seen depends on the method and setting. In cells and extracts the contact can be indirect. Some results given as binding are weak or reduced against the parent protein; the word gives no strength.

Protein sequences, listed by entry. Tags and fused reporters are not part of them.
UniProt Q08J23: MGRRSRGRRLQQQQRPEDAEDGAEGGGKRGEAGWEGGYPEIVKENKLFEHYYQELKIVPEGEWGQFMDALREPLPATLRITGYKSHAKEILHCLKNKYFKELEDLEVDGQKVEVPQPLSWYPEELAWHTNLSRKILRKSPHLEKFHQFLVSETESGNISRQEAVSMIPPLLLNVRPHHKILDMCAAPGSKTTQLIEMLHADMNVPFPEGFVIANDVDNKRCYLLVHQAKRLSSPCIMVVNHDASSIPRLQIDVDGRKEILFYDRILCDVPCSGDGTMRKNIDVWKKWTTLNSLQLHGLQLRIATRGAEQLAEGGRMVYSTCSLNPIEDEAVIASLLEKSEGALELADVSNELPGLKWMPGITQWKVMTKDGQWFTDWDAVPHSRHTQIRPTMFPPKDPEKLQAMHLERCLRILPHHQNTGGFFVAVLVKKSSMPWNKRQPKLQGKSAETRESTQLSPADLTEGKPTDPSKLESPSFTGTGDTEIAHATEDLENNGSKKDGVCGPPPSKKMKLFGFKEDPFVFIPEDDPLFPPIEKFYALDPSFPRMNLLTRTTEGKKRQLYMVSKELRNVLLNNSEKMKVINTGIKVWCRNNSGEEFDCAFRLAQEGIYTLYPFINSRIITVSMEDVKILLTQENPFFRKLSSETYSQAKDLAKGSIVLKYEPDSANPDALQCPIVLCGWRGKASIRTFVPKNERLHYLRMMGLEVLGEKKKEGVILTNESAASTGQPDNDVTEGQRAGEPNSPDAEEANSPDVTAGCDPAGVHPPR
UniProt P67809: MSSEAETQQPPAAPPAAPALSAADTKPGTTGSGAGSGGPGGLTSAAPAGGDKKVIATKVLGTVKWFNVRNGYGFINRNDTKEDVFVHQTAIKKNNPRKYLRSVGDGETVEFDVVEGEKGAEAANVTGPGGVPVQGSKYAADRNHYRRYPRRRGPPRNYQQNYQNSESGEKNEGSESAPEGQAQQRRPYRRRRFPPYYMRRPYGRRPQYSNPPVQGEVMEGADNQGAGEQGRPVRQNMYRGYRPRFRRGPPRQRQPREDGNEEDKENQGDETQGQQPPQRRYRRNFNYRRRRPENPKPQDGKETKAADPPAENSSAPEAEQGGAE

Molecular target: NOP2/Sun RNA methyltransferase family member 2 (NSUN2), flag-tagged (UniProt Q08J23)
Assay: co-IP; co-IP in H1299 cells by the text (A549 cells by the legend of Fig. 8E); antibodies and bait not stated

binding: binds
Substance: YBX1 (from UniProt P67809 1-324)
